Source: PubChem BioAssay AID1224830 (NIAID, 2016)
Shown is an unselected part of about 18,000 reagents tested. About 2,900 of all reagents (16%) count as active. 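Calls are made per well; low scores hint the gene aids the LPS response, high scores that it dampens it.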 Entries without a mark were called inactive. Repeated entries: four replicate wells of each siRNA pool. No sequences are given here.

Screen: 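Host factors that control LPS-induced TNF expression in human macrophages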 (primary screen)
System: human THP-1 monocytic leukaemia cells, TNF dual-luciferase reporter clone, PMA-differentiated to macrophage-like cells
Reagent: siRNA pool against human genes, 50 nM
Timing: LPS for 4 h, given about 3 days after siRNA transfection
Conditions: bacterial LPS (TLR4 ligand), 10 ng/ml
Measured: 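TNF firefly reporter luminescence divided by renilla, normalised to the plate median, then turned into a robust z-score for each replicate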
Scale: TNF reporter robust z-score: higher = stronger TNF reporter response to LPS
Rule for the call: 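Each well counts as active if its z-score is over 2.8 or under -1.5; controls are left without a call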

After knock-down of PDPK1 the results were TNF reporter robust z-score -1.26.
After knock-down of PDPK1 the results were TNF reporter robust z-score -1.49.
Silencing of PDPK1 resulted in: TNF reporter robust z-score -0.27.
Silencing of PDPK1 came out at: TNF reporter robust z-score -1.09.
Silencing of CSAD resulted in: TNF reporter robust z-score -0.97.
Depletion of CSAD resulted in: TNF reporter robust z-score -0.67.
With knock-down of CSAD the results were TNF reporter robust z-score -1.9 (active).
After knock-down of CSAD, the screen gave TNF reporter robust z-score -0.47.
TEX47 showed TNF reporter robust z-score 1.71.
Silencing of TEX47 gave: TNF reporter robust z-score 0.68.
After knock-down of TEX47, the screen gave TNF reporter robust z-score 0.02.
Against TEX47, the values are TNF reporter robust z-score 0.74.
CCT5 showed TNF reporter robust z-score -0.21.
After knock-down of CCT5 the results were TNF reporter robust z-score -0.8.
For CCT5 the deposit lists TNF reporter robust z-score -1.39.
CCT5 showed TNF reporter robust z-score -1.09.
Silencing of HCK gave: TNF reporter robust z-score -0.07.
Silencing of HCK gave: TNF reporter robust z-score -0.09.
Silencing of HCK gave: TNF reporter robust z-score 3.33 (active).
Knock-down of HCK resulted in: TNF reporter robust z-score 0.92.
Against ZDHHC4 the deposit lists TNF reporter robust z-score -1.77 (active).
Silencing of ZDHHC4 gave: TNF reporter robust z-score -1.48.
After knock-down of ZDHHC4 the results were TNF reporter robust z-score -1.71 (active).
Knock-down of IRF9 came out at: TNF reporter robust z-score -1.83 (active).
With knock-down of IRF9, the screen gave TNF reporter robust z-score -1.88 (active).
After knock-down of IRF9, the record shows TNF reporter robust z-score -1.85 (active).
With knock-down of IRF9 the results were TNF reporter robust z-score -1.66 (active).
Silencing of NINL resulted in: TNF reporter robust z-score 0.82.
Against NINL the deposit lists TNF reporter robust z-score -1.46.
NINL showed TNF reporter robust z-score -0.87.
NINL scored TNF reporter robust z-score -0.95.
Against SNAI2, the values are TNF reporter robust z-score 1.28.
After knock-down of SNAI2, the screen gave TNF reporter robust z-score 2.26.
SNAI2 gave TNF reporter robust z-score 1.39.
Against SNAI2 the deposit lists TNF reporter robust z-score 0.96.
CLEC18A scored TNF reporter robust z-score 0.08.
Silencing of CLEC18A gave: TNF reporter robust z-score 1.08.
With knock-down of CLEC18A, the record shows TNF reporter robust z-score 1.33.
Silencing of CLEC18A resulted in: TNF reporter robust z-score -0.03.
For LRRN4CL, the values are TNF reporter robust z-score -1.
For LRRN4CL the deposit lists TNF reporter robust z-score -1.1.
Depletion of LRRN4CL gave: TNF reporter robust z-score -0.96.
With knock-down of LRRN4CL, the record shows TNF reporter robust z-score -1.06.
CHCHD10 showed TNF reporter robust z-score -0.86.
For CHCHD10, the values are TNF reporter robust z-score -0.73.
With knock-down of CHCHD10, the record shows TNF reporter robust z-score -1.24.
CHCHD10 gave TNF reporter robust z-score -1.02.
